Test results reported in publication PMC8375240.

By UniProt entry, the sequences of proteins in these tests, tags left out. Where a name states a change or a piece, a line headed by the entry shows the natural chain unless it says otherwise.
UniProt Q05086: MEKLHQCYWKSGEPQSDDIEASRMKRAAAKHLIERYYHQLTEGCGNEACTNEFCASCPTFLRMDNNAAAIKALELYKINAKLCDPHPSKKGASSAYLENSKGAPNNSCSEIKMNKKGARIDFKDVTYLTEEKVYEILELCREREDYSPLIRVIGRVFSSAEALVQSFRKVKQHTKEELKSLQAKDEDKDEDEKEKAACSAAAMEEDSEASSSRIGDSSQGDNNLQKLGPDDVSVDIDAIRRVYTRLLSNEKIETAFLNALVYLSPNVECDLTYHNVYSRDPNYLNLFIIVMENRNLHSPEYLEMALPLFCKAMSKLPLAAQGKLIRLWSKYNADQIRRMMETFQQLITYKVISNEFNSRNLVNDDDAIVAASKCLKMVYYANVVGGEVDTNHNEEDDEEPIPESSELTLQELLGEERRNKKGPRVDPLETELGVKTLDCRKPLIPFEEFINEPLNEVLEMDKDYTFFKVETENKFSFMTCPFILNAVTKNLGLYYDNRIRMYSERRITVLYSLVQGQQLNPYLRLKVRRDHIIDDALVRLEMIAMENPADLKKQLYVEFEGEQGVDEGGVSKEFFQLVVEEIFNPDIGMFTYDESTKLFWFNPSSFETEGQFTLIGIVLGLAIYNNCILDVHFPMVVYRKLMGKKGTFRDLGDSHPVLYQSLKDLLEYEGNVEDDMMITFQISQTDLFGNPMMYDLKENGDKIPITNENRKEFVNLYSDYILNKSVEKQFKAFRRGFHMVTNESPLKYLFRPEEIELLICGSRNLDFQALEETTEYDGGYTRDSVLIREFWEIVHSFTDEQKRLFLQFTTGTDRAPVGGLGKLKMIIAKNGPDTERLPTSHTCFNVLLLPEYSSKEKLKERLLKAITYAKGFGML
UniProt O15231: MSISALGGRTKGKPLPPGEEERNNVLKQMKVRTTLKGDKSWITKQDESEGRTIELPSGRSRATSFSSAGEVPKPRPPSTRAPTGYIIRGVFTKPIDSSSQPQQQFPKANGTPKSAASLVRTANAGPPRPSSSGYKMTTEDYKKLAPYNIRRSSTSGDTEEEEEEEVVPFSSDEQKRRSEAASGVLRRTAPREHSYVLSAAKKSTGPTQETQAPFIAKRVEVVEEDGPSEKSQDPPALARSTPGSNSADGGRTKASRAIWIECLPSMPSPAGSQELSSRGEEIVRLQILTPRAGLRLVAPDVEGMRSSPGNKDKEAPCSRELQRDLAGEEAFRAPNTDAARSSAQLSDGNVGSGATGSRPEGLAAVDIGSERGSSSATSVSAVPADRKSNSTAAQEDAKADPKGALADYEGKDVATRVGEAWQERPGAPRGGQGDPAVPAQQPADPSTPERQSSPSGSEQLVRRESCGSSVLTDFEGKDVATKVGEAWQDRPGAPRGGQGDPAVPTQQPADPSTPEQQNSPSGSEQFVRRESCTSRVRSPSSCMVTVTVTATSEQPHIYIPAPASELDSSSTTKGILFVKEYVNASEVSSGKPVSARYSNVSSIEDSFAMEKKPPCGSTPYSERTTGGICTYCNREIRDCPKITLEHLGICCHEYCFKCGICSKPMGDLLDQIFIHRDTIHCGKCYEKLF

Biological target: Ubiquitin-protein ligase E3A (human (endogenous in Eca-109 and TE-1)) (UniProt Q05086)
Test: affinity purification with mass spectrometry; whole-cell lysate of Eca-109 cells immunoprecipitated with UBE3A antibody or IgG, then mass spectrometry

Zinc finger protein 185 (from UniProt O15231 1-689)
binding: binds

These are yes or no findings as the source states them, for the method shown. Binding seen in cells or lysates may run through a third protein. A yes stands for co-enrichment or nearness to the bait. Other partners may have been found.
